In the supplement of paper PMC6411743:
± gives the standard deviation of the averaged measurements. This is a selection; strong and weak results do not stand in their true shares. Most values lie at the level of the controls, where differences are scatter.

Amino acid sequences for entries named in this document (tags omitted). A change or cut given only in a name is not applied to a line headed by its entry.
UniProt Q7L5N1: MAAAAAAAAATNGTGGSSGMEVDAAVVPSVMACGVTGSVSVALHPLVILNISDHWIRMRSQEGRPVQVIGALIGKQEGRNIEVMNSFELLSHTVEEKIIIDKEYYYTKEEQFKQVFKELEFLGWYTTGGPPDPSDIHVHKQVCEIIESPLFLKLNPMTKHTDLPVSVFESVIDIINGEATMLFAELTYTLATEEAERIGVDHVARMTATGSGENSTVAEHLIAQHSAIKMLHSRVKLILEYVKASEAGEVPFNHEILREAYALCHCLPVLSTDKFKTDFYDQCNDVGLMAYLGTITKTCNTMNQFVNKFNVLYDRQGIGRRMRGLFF
UniProt P14621: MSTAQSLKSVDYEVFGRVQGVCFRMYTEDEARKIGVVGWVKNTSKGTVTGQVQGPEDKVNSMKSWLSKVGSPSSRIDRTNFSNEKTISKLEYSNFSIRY
UniProt P61224: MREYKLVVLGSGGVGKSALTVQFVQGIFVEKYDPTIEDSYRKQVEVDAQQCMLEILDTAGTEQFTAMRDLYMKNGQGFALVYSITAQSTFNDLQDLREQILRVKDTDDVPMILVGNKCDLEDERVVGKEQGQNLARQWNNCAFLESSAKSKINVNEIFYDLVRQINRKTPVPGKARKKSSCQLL
UniProt P13987: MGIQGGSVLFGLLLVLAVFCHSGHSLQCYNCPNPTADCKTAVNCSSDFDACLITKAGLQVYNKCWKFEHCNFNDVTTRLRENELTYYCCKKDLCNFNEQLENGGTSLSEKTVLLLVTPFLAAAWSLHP
UniProt Q9Y4C1: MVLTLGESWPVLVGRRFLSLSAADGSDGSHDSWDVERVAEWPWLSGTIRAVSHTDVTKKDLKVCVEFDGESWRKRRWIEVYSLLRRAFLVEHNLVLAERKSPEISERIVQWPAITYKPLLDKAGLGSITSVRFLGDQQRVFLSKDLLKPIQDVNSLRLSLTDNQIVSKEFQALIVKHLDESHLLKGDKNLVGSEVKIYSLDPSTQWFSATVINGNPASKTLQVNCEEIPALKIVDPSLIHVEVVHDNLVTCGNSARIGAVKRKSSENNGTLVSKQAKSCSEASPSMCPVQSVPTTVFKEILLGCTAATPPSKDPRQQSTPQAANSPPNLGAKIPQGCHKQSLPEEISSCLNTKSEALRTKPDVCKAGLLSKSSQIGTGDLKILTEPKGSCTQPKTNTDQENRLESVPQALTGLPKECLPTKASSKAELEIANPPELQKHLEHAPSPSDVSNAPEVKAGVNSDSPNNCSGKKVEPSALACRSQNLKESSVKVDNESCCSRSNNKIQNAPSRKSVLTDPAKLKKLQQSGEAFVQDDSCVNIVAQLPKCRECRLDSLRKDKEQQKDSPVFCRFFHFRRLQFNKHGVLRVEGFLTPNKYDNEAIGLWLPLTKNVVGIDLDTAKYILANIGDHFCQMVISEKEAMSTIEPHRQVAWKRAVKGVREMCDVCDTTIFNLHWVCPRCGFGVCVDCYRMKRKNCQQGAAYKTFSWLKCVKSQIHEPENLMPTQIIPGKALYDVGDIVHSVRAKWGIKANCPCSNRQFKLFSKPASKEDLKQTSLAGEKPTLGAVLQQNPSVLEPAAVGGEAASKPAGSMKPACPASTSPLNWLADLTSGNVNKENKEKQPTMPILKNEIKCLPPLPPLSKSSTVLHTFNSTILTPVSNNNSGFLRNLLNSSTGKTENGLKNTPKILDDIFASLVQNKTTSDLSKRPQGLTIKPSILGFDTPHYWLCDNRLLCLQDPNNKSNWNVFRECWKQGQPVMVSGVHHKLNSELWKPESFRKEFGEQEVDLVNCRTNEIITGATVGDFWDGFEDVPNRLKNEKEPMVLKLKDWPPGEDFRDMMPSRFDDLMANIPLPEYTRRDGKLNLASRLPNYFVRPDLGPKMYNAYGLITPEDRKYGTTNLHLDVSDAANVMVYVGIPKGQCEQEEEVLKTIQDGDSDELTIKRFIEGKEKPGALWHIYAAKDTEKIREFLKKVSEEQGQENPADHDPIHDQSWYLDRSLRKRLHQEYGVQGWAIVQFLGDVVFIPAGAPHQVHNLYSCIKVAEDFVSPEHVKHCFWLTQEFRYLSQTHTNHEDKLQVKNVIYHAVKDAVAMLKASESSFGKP
UniProt Q8WTW3: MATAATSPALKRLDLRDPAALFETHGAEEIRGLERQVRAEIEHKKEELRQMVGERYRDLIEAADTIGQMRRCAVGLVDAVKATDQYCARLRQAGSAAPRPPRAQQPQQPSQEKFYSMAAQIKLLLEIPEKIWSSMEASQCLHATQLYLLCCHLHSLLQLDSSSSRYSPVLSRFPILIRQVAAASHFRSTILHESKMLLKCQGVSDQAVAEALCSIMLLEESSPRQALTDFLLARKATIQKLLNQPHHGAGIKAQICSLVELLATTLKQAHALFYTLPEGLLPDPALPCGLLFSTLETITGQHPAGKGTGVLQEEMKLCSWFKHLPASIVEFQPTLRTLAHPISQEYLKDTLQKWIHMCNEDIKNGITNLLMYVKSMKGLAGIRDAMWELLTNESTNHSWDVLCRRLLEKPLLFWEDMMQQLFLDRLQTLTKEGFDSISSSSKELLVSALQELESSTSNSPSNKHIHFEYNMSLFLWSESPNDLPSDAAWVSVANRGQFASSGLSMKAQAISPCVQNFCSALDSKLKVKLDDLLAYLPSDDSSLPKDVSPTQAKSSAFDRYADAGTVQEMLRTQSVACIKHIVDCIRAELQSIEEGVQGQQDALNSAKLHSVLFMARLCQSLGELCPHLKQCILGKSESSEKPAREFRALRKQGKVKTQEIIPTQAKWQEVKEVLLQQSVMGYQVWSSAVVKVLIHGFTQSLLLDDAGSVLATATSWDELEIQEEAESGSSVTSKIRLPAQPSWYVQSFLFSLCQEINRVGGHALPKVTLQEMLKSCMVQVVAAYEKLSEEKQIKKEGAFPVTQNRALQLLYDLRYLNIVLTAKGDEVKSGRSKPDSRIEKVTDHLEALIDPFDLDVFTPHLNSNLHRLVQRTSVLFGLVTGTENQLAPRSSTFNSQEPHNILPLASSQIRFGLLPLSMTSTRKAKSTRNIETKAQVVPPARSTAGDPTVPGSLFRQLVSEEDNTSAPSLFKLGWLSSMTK
UniProt P25786: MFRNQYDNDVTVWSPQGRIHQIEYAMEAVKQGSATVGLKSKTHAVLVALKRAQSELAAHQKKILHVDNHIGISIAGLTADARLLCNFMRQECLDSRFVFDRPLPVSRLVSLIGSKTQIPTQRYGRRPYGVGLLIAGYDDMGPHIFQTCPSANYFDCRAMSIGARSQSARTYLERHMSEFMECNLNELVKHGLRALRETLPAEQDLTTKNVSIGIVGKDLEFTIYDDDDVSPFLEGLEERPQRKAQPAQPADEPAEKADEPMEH
UniProt O95208: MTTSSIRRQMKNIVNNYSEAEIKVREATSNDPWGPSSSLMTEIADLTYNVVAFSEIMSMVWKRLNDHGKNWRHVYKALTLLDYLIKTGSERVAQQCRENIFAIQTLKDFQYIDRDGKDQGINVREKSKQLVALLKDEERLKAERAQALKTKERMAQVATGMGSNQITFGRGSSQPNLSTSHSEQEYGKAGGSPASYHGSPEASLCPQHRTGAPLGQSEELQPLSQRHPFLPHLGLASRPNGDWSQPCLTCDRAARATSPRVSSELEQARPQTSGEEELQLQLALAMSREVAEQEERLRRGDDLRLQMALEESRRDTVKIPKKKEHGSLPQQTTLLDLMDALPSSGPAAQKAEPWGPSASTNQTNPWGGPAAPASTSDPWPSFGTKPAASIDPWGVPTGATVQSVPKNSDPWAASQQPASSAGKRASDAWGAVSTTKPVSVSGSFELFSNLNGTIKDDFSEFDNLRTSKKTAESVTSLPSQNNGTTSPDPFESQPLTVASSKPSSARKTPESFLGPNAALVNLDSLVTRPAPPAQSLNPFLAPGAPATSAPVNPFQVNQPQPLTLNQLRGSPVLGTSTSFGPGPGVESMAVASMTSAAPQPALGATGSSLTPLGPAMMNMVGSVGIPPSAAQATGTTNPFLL
UniProt Q8IUX1: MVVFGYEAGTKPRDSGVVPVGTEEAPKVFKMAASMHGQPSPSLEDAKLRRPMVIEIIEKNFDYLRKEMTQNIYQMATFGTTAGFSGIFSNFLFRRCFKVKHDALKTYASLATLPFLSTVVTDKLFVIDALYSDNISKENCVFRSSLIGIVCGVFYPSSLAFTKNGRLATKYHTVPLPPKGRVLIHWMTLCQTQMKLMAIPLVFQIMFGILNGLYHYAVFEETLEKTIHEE
UniProt O75167: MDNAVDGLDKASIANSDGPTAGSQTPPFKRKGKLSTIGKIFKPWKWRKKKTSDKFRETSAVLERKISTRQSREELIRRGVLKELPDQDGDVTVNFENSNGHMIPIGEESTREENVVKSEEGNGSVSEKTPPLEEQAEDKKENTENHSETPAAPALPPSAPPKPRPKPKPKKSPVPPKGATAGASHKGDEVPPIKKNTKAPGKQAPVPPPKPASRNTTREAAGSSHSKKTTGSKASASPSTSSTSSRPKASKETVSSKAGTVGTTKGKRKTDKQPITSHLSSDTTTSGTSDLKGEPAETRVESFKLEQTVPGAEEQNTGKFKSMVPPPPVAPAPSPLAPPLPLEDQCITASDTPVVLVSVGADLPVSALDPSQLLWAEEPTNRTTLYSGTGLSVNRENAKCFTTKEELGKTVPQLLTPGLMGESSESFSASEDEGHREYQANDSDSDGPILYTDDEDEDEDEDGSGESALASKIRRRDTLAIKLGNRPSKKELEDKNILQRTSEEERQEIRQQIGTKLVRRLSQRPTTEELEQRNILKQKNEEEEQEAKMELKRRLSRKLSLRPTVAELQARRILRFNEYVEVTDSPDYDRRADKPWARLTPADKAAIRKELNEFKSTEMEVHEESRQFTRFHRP
UniProt O75251, whole entry: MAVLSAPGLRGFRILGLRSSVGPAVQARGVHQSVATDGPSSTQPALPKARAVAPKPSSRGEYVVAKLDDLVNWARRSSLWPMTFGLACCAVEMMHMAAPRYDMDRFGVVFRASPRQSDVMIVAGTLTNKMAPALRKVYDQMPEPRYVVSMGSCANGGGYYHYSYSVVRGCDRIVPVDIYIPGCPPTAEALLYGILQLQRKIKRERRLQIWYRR
UniProt O43674, whole entry: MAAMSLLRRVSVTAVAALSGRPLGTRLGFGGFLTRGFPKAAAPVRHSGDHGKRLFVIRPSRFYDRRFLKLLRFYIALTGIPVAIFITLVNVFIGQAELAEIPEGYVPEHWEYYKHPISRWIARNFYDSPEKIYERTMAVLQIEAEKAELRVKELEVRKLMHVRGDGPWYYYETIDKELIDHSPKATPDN
UniProt Q9Y324: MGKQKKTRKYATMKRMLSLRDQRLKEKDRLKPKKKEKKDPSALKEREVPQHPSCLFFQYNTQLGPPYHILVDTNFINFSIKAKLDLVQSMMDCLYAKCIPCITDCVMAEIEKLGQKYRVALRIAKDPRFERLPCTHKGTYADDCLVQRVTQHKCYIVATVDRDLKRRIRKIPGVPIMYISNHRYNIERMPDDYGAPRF
UniProt P23528, whole entry: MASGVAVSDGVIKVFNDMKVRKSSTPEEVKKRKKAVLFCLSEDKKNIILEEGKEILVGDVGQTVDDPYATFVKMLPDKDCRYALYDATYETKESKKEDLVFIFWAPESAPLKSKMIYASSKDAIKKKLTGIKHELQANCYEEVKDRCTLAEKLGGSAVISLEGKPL
UniProt O43491, whole entry: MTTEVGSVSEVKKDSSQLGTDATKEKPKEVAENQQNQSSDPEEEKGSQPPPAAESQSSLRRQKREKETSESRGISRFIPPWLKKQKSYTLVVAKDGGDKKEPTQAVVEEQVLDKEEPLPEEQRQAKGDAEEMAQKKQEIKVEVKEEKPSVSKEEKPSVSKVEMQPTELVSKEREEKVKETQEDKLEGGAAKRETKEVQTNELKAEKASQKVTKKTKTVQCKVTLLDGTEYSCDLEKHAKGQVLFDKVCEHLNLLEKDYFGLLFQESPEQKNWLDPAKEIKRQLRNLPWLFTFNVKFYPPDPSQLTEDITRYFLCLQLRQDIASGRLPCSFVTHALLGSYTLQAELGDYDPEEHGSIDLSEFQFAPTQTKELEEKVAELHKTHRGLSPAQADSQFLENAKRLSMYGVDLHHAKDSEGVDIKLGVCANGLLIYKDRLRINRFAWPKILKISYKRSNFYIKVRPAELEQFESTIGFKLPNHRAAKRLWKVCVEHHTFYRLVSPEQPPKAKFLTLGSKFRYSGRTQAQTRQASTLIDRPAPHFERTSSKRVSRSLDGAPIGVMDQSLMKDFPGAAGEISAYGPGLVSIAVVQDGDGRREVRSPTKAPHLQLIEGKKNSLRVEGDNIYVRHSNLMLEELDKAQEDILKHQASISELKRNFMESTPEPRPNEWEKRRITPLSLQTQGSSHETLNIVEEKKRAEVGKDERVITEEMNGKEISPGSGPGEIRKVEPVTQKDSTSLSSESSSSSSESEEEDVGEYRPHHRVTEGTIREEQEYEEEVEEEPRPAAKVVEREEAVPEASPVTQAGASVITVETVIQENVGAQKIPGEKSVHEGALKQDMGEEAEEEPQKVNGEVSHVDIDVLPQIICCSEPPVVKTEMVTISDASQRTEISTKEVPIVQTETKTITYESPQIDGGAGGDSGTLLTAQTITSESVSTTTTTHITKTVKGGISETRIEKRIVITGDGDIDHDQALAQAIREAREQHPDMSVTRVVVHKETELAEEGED

Compound: Nc1ncnc2c1ncn2[C@@H]1O[C@H](COP(=O)(O)OP(=O)(O)NP(=O)(O)O)[C@@H](O)[C@H]1O [adenylyl imidodiphosphate]
Assay: NP40-soluble protein abundance relative to vehicle (solubility fold change) (ratio); higher = more soluble protein in presence of AMP-PNP
How it was run: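 Eight concentrations, 0.1 to 10 mM, were tested on Jurkat crude lysate for 10 min at room temperature and then 3 min at 37 °C, in three independent experiments. The lysate was solubilised with 0.8% NP40 and benzonase, ultracentrifuged, and the supernatant TMT-labelled for LC-MS/MS. Each value is the fold change against the detergent-processed vehicle in its own replicate, from vsn-normalised intensities.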

Target | NP40-soluble protein abundance (concentration: 0.1mM) | NP40-soluble protein abundance (concentration: 0.5mM)
E9PEQ6 and related entries (UniProt Q9UNP9) | 0.966 ± 0.019 | 1.03 ± 0.047
F8W060 and related entries (UniProt Q9BZF1) | 0.974 ± 0.024 | 0.988 ± 0.011
E7EW05 and related entries (UniProt Q9NVU7) | 0.965 ± 0.02 | 0.981 ± 0.038
E9PHV5 and related entries (UniProt P28290) | 0.968 ± 0.042 | 1.01 ± 0.025
E7EM64 and related entries (UniProt Q7L5N1) | 1.05 ± 0.014 | 1.01 ± 0.043
E9PJI0 and related entries (UniProt Q5JPF3) | 0.975 ± 0.033 | 0.949 ± 0.029
E9PF46 and related entries (UniProt P14621) | 0.973 ± 0.028 | 1.04 ± 0.045
E7ES96 and related entries (UniProt P49768) | 0.9747 ± 0.0069 | 0.981 ± 0.0099
F5H527 and related entries (UniProt Q76I76) | 0.9967 ± 0.0079 | 0.987 ± 0.033
F5GWU8 and related entries (UniProt P61224) | 0.964 ± 0.013 | 1.02 ± 0.054
E9PNW4 and related entries (UniProt P13987) | 1.01 ± 0.051 | 1.06 ± 0.056
F5H226 and related entries (UniProt P08397) | 1.02 ± 0.028 | 0.9918 ± 0.0047
F5H070 and related entries (UniProt Q9Y4C1) | 1.02 ± 0.032 | 0.978 ± 0.031
E9PBL8 and related entries (UniProt Q8WTW3) | 1.103 ± 0.0046 | 0.9766 ± 0.0057
E9PGC8 (UniProt P78559) | 0.984 ± 0.03 | 1 ± 0.046
E7EVQ6 and related entries (UniProt Q14534) | 1.03 ± 0.019 | 1.05 ± 0.026
F5GX11 and related entries (UniProt P25786) | 1.01 ± 0.017 | 1.04 ± 0.034
E9PI90 and related entries (UniProt Q9H061) | 1.05 ± 0.095 | 0.985 ± 0.12
E9PBC1 and related entries (UniProt O95208) | 1.01 ± 0.016 | 0.999 ± 0.0094
E7EUC4 and related entries (UniProt Q9NRH2) | 0.994 ± 0.044 | 0.998 ± 0.068
E7EVX2 and related entries (UniProt Q13439) | 0.98 ± 0.022 | 0.986 ± 0.045
G3V1C3 and related entries (UniProt Q9BZZ5) | 0.9394 ± 0.0061 | 0.936 ± 0.017

Laid out differently: results already given.

| Target | NP40-soluble protein abundance (concentration: 0.1mM) | NP40-soluble protein abundance (concentration: 0.5mM) |
| --- | --- | --- |
| F5H070 and related entries (UniProt Q9Y4C1) | 1.02 ± 0.032 | 0.978 ± 0.031 |
| E9PI90 and related entries (UniProt Q9H061) | 1.05 ± 0.095 | 0.985 ± 0.12 |

(listing goes on)

Target | NP40-soluble protein abundance (concentration: 0.1mM) | NP40-soluble protein abundance (concentration: 0.5mM)
F6V2D4 and related entries (UniProt O00214) | 1.01 ± 0.027 | 0.999 ± 0.041
E7ERS3 and related entries (UniProt Q86VM9) | 0.987 ± 0.031 | 1.03 ± 0.046
E5RJR5 and related entries (UniProt P63208) | 0.966 ± 0.029 | 1.05 ± 0.055
E9PJQ6 and related entries (UniProt Q8IUX1) | 0.992 ± 0.022 | 1.06 ± 0.013
F5H858 and related entries (UniProt O75167) | 0.9998 ± 0.0038 | 0.993 ± 0.045
F5GXJ1 and related entries (UniProt O75251) | 1.03 ± 0.038 | 0.991 ± 0.089
E7ESG2 and related entries (UniProt Q9HAW4) | 0.968 ± 0.033 | 1.02 ± 0.057
F5H101 and related entries (UniProt Q76FK4) | 1.01 ± 0.023 | 1.03 ± 0.029
E9PJD7 and related entries (UniProt P0DTL6) | 0.99 ± 0.025 | 0.9892 ± 0.0024
E7EWP0 and related entries (UniProt O43674) | 1 ± 0.015 | 1.02 ± 0.047
G3V1S4 and related entries (UniProt Q9Y324) | 1.001 ± 0.0077 | 1.011 ± 0.0098
F8W922 and related entries (UniProt Q9H7P6) | 1.017 ± 0.0083 | 1.027 ± 0.0032
E7EQ34 and related entries (UniProt O14653+E7EQ34) | 0.964 ± 0.023 | 1.01 ± 0.018
E9PP50 and related entries (UniProt P23528) | 0.993 ± 0.023 | 0.993 ± 0.02
E9PDP5 and related entries (UniProt Q8IWZ3) | 1 ± 0.036 | 0.993 ± 0.035
E7EW18 and related entries (UniProt P06746) | 0.999 ± 0.029 | 1.04 ± 0.035
E9PN10 and related entries (UniProt O00559) | 0.975 ± 0.035 | 1.04 ± 0.044
E9PHY5 and related entries (UniProt O43491) | 0.975 ± 0.021 | 1 ± 0.029
E7EN32 and related entries (UniProt O00255) | 1.02 ± 0.023 | 1.08 ± 0.036
E7ET07 and related entries (UniProt Q9NXR8) | 1.01 ± 0.014 | 1.014 ± 0.0094
E7ETB3 and related entries (UniProt Q9ULA0) | 1.01 ± 0.04 | 0.978 ± 0.027
